PubChem BioAssay AID493246, Drosophila RNAi Screening Center – 2011

- Purpose: 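Identify essential fly genes by loss of cell viability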 (primary screen)
- Cells: Drosophila Kc and S2R+ cells
- Reagent: long dsRNA against Drosophila genes
- Detection: 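Raw, unnormalised count of remaining cells in each well; per-plate z-scores of cell number underlie the calls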
- Reading the numbers: Kc cell number and S2R+ cell number: higher = more cells remaining
- Hit rule: 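Active when the per-plate z-score of cell number is 3 or more in the direction of fewer cells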
The screen tested about 21,000 reagents; this is an unselected part of those with a known target gene and a result. In the full data, 429 (2%) got an active call. 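Values are raw and not normalised between plates; calls rest on per-plate z-scores that were not deposited.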 Entries without a mark were called inactive. No sequences are given here. Not stated in the record: the amount of reagent, the time to read-out.

The first 2 records, ahead of the listing:
{"predicted target":"Snx3 (Sorting nexin 3)","dsRNA":"DRSC16027","Kc cell number, rep 1":1.49e6,"Kc cell number, rep 2":1.63e6,"S2R+ cell number, rep 1":1.35e6,"S2R+ cell number, rep 2":1.43e6}
{"predicted target":"bi (bifid)","dsRNA":"DRSC18742","Kc cell number, rep 1":1.63e6,"Kc cell number, rep 2":1.58e6,"S2R+ cell number, rep 1":1.07e6,"S2R+ cell number, rep 2":1.18e6}

The list itself, repeating the preview:
{"predicted target":"Snx3 (Sorting nexin 3)","dsRNA":"DRSC16027","Kc cell number, rep 1":1.49e6,"Kc cell number, rep 2":1.63e6,"S2R+ cell number, rep 1":1.35e6,"S2R+ cell number, rep 2":1.43e6}
{"predicted target":"bi (bifid)","dsRNA":"DRSC18742","Kc cell number, rep 1":1.63e6,"Kc cell number, rep 2":1.58e6,"S2R+ cell number, rep 1":1.07e6,"S2R+ cell number, rep 2":1.18e6}
{"predicted target":"l(2)k01209 (lethal (2) k01209)","dsRNA":"DRSC06889","Kc cell number, rep 1":1.57e6,"Kc cell number, rep 2":1.64e6,"S2R+ cell number, rep 1":1.25e6,"S2R+ cell number, rep 2":1.34e6}
{"predicted target":"CG7903","dsRNA":"DRSC16338","Kc cell number, rep 1":1.50e6,"Kc cell number, rep 2":1.57e6,"S2R+ cell number, rep 1":1.09e6,"S2R+ cell number, rep 2":1.21e6}
{"predicted target":"Alh (Alhambra)","dsRNA":"DRSC12447","Kc cell number, rep 1":"1.01e6 (active)","Kc cell number, rep 2":9.92e5,"S2R+ cell number, rep 1":7.40e5,"S2R+ cell number, rep 2":8.51e5}
{"predicted target":"Alh (Alhambra)","dsRNA":"DRSC12487","Kc cell number, rep 1":1.45e6,"Kc cell number, rep 2":1.46e6,"S2R+ cell number, rep 1":1.25e6,"S2R+ cell number, rep 2":1.30e6}
{"predicted target":"Alh (Alhambra)","dsRNA":"DRSC12488","Kc cell number, rep 1":1.67e6,"Kc cell number, rep 2":1.76e6,"S2R+ cell number, rep 1":1.28e6,"S2R+ cell number, rep 2":1.46e6}
{"predicted target":"rdhB (retinol dehydrogenase B)","dsRNA":"DRSC16190","Kc cell number, rep 1":1.56e6,"Kc cell number, rep 2":1.59e6,"S2R+ cell number, rep 1":1.26e6,"S2R+ cell number, rep 2":1.26e6}
{"predicted target":"pn (prune)","dsRNA":"DRSC18822","Kc cell number, rep 1":5.36e5,"S2R+ cell number, rep 1":8.05e5}
{"predicted target":"Cpr67Fa2 (Cuticular protein 67Fa2)","dsRNA":"DRSC10315","Kc cell number, rep 1":1.34e6,"Kc cell number, rep 2":1.33e6,"S2R+ cell number, rep 1":1.24e6,"S2R+ cell number, rep 2":1.30e6}
{"predicted target":"CG3097","dsRNA":"DRSC18275","Kc cell number, rep 1":1.74e6,"Kc cell number, rep 2":1.79e6,"S2R+ cell number, rep 1":1.14e6,"S2R+ cell number, rep 2":1.25e6}
{"predicted target":"spict (spichthyin)","dsRNA":"DRSC02157","Kc cell number, rep 1":1.43e6,"Kc cell number, rep 2":1.50e6,"S2R+ cell number, rep 1":1.00e6,"S2R+ cell number, rep 2":1.11e6}
{"predicted target":"CG8138","dsRNA":"DRSC16386","Kc cell number, rep 1":1.48e6,"Kc cell number, rep 2":1.50e6,"S2R+ cell number, rep 1":1.04e6,"S2R+ cell number, rep 2":1.16e6}
{"predicted target":"CG3770","dsRNA":"DRSC04416","Kc cell number, rep 1":1.28e6,"Kc cell number, rep 2":1.33e6,"S2R+ cell number, rep 1":9.62e5,"S2R+ cell number, rep 2":9.69e5}
